Results: patent US11814445B2 (Ra Pharmaceuticals, Inc., priority 2018, dated 2023)

Experiment: general procedure: Fmoc solid-phase peptide synthesis; PS Rink-Amide MBHA resin, 0.32 mmol g^-1; DIC / Oxyma Pure
Conditions: whole synthesis, scale 0.250 mmol

| Substance | crude mass |
| --- | --- |
| Int-A (Example 3) | 399 mg |
| Int-A (Example 4) | 300 mg |
